PubChem BioAssay AID256 (DTP/NCI, 2004)
The list does not hold the whole screen: it is rich in T/C values a quarter to a half above the control, in often repeated tests (any T/C) and in doses without a T/C. Further doses and runs are listed elsewhere. T/C gives the treated animals as a percentage of the vehicle group. Some entries give survivors of the animals treated and no T/C: the source files T/C as zero there, which appears to mark a toxic dose or a test without result, not a measured value. Some doses without a T/C left all or most animals alive at the check, yet need not have been tolerated: survival well below the control is almost never listed, so the zero probably covers shortened survival too. Counts of survivors are from the toxicity check (mostly the fifth day) where no day follows; animals may have died later. Schedules are NCI's codes, taken here to give the interval after Q, in days (D) or hours (H), and the number of doses after X. For survival time, the PubChem record calls one and a half times the control and up active, and a quarter to a half above the control has no call in these data; cut-offs in other NCI protocols can differ.

System: CD2F1 mice, L1210 leukemia ip, survival T/C
Assay: NCI In Vivo Anticancer Drug Screen. Data for tumor model L1210 Leukemia (intraperitoneal) in CD2F1 (CDF1) mice
Details: higher T/C = longer survival
Method in brief: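 Activity against a transplanted murine tumor was judged by comparing the compound group with a vehicle group. The outcome in the treated animals was divided by that in the controls.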

[1] = T/C endpoint: mean survival time, dose: 25.0 mg/kg/injection, schedule: Q01DX001 (ip), vehicle: saline with Tween-80
[2] = T/C endpoint: mean survival time, dose: 100.0 mg/kg/injection, schedule: Q01DX001 (ip), vehicle: saline with Tween-80
[3] = T/C endpoint: mean survival time, dose: 400.0 mg/kg/injection, schedule: Q01DX001 (ip), vehicle: saline with Tween-80
[4] = T/C endpoint: mean survival time, dose: 400.0 mg/kg/injection, schedule: Q01DX009 (ip), vehicle: saline with Tween-80
[5] = T/C endpoint: mean survival time, dose: 400.0 mg/kg/injection, schedule: Q01DX001 (ip), vehicle: saline
[6] = T/C endpoint: mean survival time, dose: 400.0 mg/kg/injection, schedule: Q04DX003 (ip), vehicle: saline with Tween-80

Structure (SMILES): C[n+]1c(-c2cc(Cl)cc(Cl)c2)c2cc(N)ccc2c2ccccc21
- survivor count (T/C endpoint: mean survival time, dose: 50.0 mg/kg/injection, schedule: Q01DX009 (ip), vehicle: water): 6 of 6
- survivor count (T/C endpoint: mean survival time, dose: 100.0 mg/kg/injection, schedule: Q01DX009 (ip), vehicle: water): 0 of 6

Structure (SMILES): CC([NH-])C([NH-])O.[Cl][Pt+2][Cl] (centres undefined)
- T/C (T/C endpoint: mean survival time, dose: 12.5 mg/kg/injection, schedule: Q04DX003 (ip), vehicle: saline with Tween-80): 125 % of control
- T/C (T/C endpoint: mean survival time, dose: 25.0 mg/kg/injection, schedule: Q04DX003 (ip), vehicle: saline with Tween-80): 130 % of control

Structure (SMILES): CC1CC(O)C(=O)C(O[C@@H]2C[C@@H]3CC[C@@H]4[C@H](CC[C@]5(C)C(C6=CC(=O)OC6)CC[C@]45O)[C@@]3(C=O)C[C@H]2O)O1 (some centres undefined)
- survivor count [1]: 0 of 6
- survivor count [2]: 0 of 6
- survivor count (T/C endpoint: mean survival time, dose: 200.0 mg/kg/injection, schedule: Q01DX001 (ip), vehicle: saline with Tween-80): 0 of 6
- survivor count [3]: 0 of 6

Structure (SMILES): CCC(C)(C)NC1=C(Cl)C(=O)c2ccccc2C1=O
- survivor count [1]: 2 of 6
- survivor count (T/C endpoint: mean survival time, dose: 50.0 mg/kg/injection, schedule: Q01DX001 (ip), vehicle: saline with Tween-80): 0 of 6
- survivor count [2]: 0 of 6

Structure (SMILES): CN1CCCN(C)C1c1cc(Br)ccc1O
- survivor count (T/C endpoint: mean survival time, dose: 100.0 mg/kg/injection, schedule: Q01DX009 (ip), vehicle: saline with Tween-80): 2 of 6
- survivor count (T/C endpoint: mean survival time, dose: 200.0 mg/kg/injection, schedule: Q01DX009 (ip), vehicle: saline with Tween-80): 3 of 6
- survivor count [4]: 0 of 6

Structure (SMILES): O=S(=O)(O)c1ccccc1O
- survivor count (T/C endpoint: mean survival time, dose: 200.0 mg/kg/injection, schedule: Q01DX009 (ip), vehicle: saline): 0 of 6
- survivor count (T/C endpoint: mean survival time, dose: 400.0 mg/kg/injection, schedule: Q01DX009 (ip), vehicle: saline): 0 of 6

Structure (SMILES): N#CC1C(C#N)C1C#N (centres undefined)
- survivor count [3]: 0 of 3

Structure (SMILES): COC(=O)c1cc(-c2ccc(Cl)cc2)nc2cc(Cl)c(OC)cc12
- survivor count [5]: 6 of 6

Structure (SMILES): CC(C)c1ccc2c(c1)CC[C@H]1[C@](C)(C#N)CCC[C@]21C
- survivor count [4]: 5 of 6

Structure (SMILES): Cc1ccc(Cl)cc1[NH-].Cc1ccc(Cl)cc1[NH-].[Cl][Pt+2][Cl]
- survivor count [6]: 0 of 6

Structure (SMILES): COc1ccc(C(=O)C[P+](c2ccccc2)(c2ccccc2)c2ccccc2)cc1
- survivor count (T/C endpoint: mean survival time, dose: 100.0 mg/kg/injection, schedule: Q01DX001 (ip), vehicle: saline): 3 of 6
- survivor count (T/C endpoint: mean survival time, dose: 200.0 mg/kg/injection, schedule: Q01DX001 (ip), vehicle: saline): 1 of 6
- survivor count [5]: 0 of 6

Structure (SMILES): O=S(=O)(N=N/C=C1\C=CC=CN1O)c1cccs1
- survivor count [4]: 3 of 6

Structure (SMILES): Cc1cc(N(CCOS(C)(=O)=O)CCOS(C)(=O)=O)ccc1N=Nc1ccccc1
- survivor count (T/C endpoint: mean survival time, dose: 50.0 mg/kg/injection, schedule: Q01DX009 (ip), vehicle: Klucel (hydroxypropylcellulose) (HPC)): 3 of 3
- survivor count (T/C endpoint: mean survival time, dose: 100.0 mg/kg/injection, schedule: Q01DX009 (ip), vehicle: Klucel (hydroxypropylcellulose) (HPC)): 3 of 3
- survivor count (T/C endpoint: mean survival time, dose: 200.0 mg/kg/injection, schedule: Q01DX009 (ip), vehicle: Klucel (hydroxypropylcellulose) (HPC)): 3 of 3

Structure (SMILES): O=[N+]([O-])c1ccc(Nc2ccc(Br)cc2)c([N+](=O)[O-])c1
- survivor count [6]: 6 of 6

Structure (SMILES): CN(CCC#N)c1ccc(C(=C2C=CC(=Nc3ccccc3)c3ccccc32)c2ccc(N(C)CCC#N)cc2)cc1
- survivor count (T/C endpoint: mean survival time, dose: 400.0 mg/kg/injection, schedule: Q04DX002 (ip), vehicle: saline with Tween-80): 2 of 3

Structure (SMILES): c1ccc2c(c1)CC1CCCCN1C2 (centres undefined)
- survivor count (T/C endpoint: mean survival time, dose: 100.0 mg/kg/injection, schedule: Q01DX001 (ip), vehicle: Klucel (hydroxypropylcellulose) (HPC)): 1 of 6
- survivor count (T/C endpoint: mean survival time, dose: 200.0 mg/kg/injection, schedule: Q01DX001 (ip), vehicle: Klucel (hydroxypropylcellulose) (HPC)): 2 of 6
- survivor count (T/C endpoint: mean survival time, dose: 400.0 mg/kg/injection, schedule: Q01DX001 (ip), vehicle: Klucel (hydroxypropylcellulose) (HPC)): 0 of 6

Structure (SMILES): Cn1/c2cc/c1=C(\c1ccc(S(=O)(=O)O)cc1)c1ccc([n-]1)/C(c1ccc(S(=O)(=O)O)cc1)=c1/cc/c([nH]1)=C(\c1ccc(S(=O)(=O)O)cc1)c1ccc([n-]1)/C=2c1ccc(S(=O)(=O)O)cc1.O.O=S(=O)(O)C(F)(F)F.[Cu+2]
- survivor count (T/C endpoint: median survival time, dose: 200.0 mg/kg/injection, schedule: Q01DX009 (ip), vehicle: saline): 0 of 5

Structure (SMILES): CC(C#N)(Cc1ccccc1)Nc1ccccc1 (centres undefined)
- survivor count [6]: 5 of 6
